Some of these results come from one statement about several compounds together. At least one compound was matched to its structure with a doubt left.
Experiments:
Assay type in all cases: in vivo
Musca domestica = assay: Experimental Example 2: treated filter paper with sucrose bait, Musca domestica; settings: 500 ppm, 0.7 ml on filter paper; 10 female imagoes; after 24 hours
Culex pipiens pallens = assay: Experimental Example 4: larvae in treated water, Culex pipiens pallens; settings: active ingredient concentration 3.5 ppm in water; 20 last-instar larvae; after one day
Nilaparvata lugens = assay: Experimental Example 1: spray on rice plants, Nilaparvata lugens larvae; settings: 500 ppm, 20 ml/cup sprayed on rice plants; 30 first-instar larvae released; sixth day after release

Row | SMILES | death rate of the pest (Musca domestica) | death rate of the pest (Culex pipiens pallens) | number of the parasitic pest (Nilaparvata lugens on the rice plants) (Nilaparvata lugens)
1 | N#CC(C#N)(CCC(F)(F)F)CC(F)(F)F [(21)] | ≥ 90% | ≥ 90% | 
2 | N#CC(C#N)(CCCF)CCC(F)(F)F [(39)] | ≥ 90% | ≥ 90% | ≤ 3
3 | N#CC(C#N)(CCCF)CC(F)(F)C(F)(F)C(F)(F)C(F)F [(74)] | ≥ 90% | ≥ 90% | ≤ 3
4 | C=CCC(C#N)(C#N)CCC(F)(F)F [(15)] | ≥ 90% |  | 
5 | N#CC(C#N)(CC(F)(F)C(F)F)CC(F)(F)C(F)F [(50)] | ≥ 90% |  | 
6 | N#CC(C#N)(CCCC(F)(F)F)CCC(F)(F)F [(48)] | ≥ 90% | ≥ 90% | ≤ 3
7 | N#CC(C#N)(CCC(F)(F)F)CC1CC1(Cl)Cl (stereo not drawn) [(4)] | ≥ 90% | ≥ 90% | ≤ 3
8 | N#CC(C#N)(CC(F)(F)C(F)C(F)(F)F)CC(F)(F)C(F)(F)C(F)(F)C(F)F (stereo not drawn) [(81)] | ≥ 90% | ≥ 90% | ≤ 3
9 | N#CC(C#N)(CCC(F)=C(F)F)CC(F)(F)C(F)(F)C(F)(F)C(F)F [(75)] | ≥ 90% | ≥ 90% | ≤ 3
10 | N#CC(C#N)(CCC(F)(F)F)CCC(F)(F)C(F)(F)C(F)(F)C(F)(F)F [(38)] | ≥ 90% | ≥ 90% | ≤ 3
11 | N#CC(C#N)(CCF)CCC(F)(F)F [(25)] | ≥ 90% |  | 
12 | C=CCC(C#N)(C#N)CC(F)(F)C(F)(F)C(F)(F)C(F)F [(47)] | ≥ 90% | ≥ 90% | 
13 | CC(Br)CCC(C#N)(C#N)CC(F)(F)C(F)(F)C(F)(F)C(F)F (stereo not drawn) [(62)] | ≥ 90% | ≥ 90% | 
14 | N#CC(C#N)(CC(F)(F)C(F)F)CC(F)(F)C(F)(F)C(F)(F)C(F)F [(61)] | ≥ 90% | ≥ 90% | ≤ 3
15 | C#CCC(C#N)(C#N)CCC(F)(F)F [(27)] | ≥ 90% |  | 
16 | CCC(F)(F)CCC(C#N)(C#N)CCC(F)(F)F [(70)] | ≥ 90% | ≥ 90% | ≤ 3
17 | N#CC(C#N)(CCCCCF)CCC(F)(F)F [(55)] | ≥ 90% | ≥ 90% | 
18 | C=CCCC(C#N)(C#N)CC(F)(F)C(F)(F)C(F)(F)C(F)F [(73)] | ≥ 90% | ≥ 90% | ≤ 3
19 | N#CC(C#N)(CC(Cl)C(F)(F)F)CC(F)(F)C(F)(F)C(F)(F)C(F)F (stereo not drawn) [(69)] | ≥ 90% | ≥ 90% | ≤ 3
20 | CCCCCC(C#N)(C#N)CCC(F)(F)F [(9)] | ≥ 90% | ≥ 90% | 
21 | N#CC(C#N)(CCC(F)(F)F)CC1CCCCC1 [(28)] |  | ≥ 90% | ≤ 3
22 | N#CC(C#N)(CC(F)(F)C(F)(F)C(F)(F)F)CC(F)(F)C(F)(F)C(F)(F)C(F)F [(79)] | ≥ 90% | ≥ 90% | ≤ 3
23 | N#CC(C#N)(CCC(F)(F)F)CC1CCC(F)(F)CC1 [(83)] | ≥ 90% | ≥ 90% | ≤ 3
24 | CC(C)(C)CC(C#N)(C#N)CCC(F)(F)F [(43)] |  | ≥ 90% | 
25 | N#CC(C#N)(CCCBr)CC(F)(F)C(F)(F)C(F)(F)C(F)F [(65)] |  | ≥ 90% | 
26 | CCCCCCCC(C#N)(C#N)CCC(F)(F)F [(11)] | ≥ 90% | ≥ 90% | 
27 | CCCCCCC(C#N)(C#N)CCC(F)(F)F [(10)] | ≥ 90% | ≥ 90% | 
28 | CC1CCC(CC(C#N)(C#N)CCC(F)(F)F)CC1 (stereo not drawn) [(86)] | ≥ 90% |  | ≤ 3
29 | N#CC(C#N)(CCC(F)(F)F)C[C@H]1CCC[C@@H](CF)C1 [(88)] |  |  | ≤ 3
30 | N#CC(C#N)(CCC(F)(F)F)CCC(F)(F)F [(5)] | ≥ 90% |  | ≤ 3
